Laboratory results from the supplement of paper PMC8728848.
The other results are listed elsewhere or left out.

Legend:
Experiment in all cases: glycan array binding signal (z-score within array); higher = stronger binding
Conditions in all cases: glycan notation: IUPAC condensed, linker removed
[1] = target: Gal3S(b1-4)Glc
Procedure, shortened: (§1)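 Glycan array binding is given as a within-array Z-score, which can be read as non-binding when negative. The arrays, 3228 of them, came from the Consortium for Functional Glycomics database and were retained only where the protein sequence was available. Z-scores were averaged across arrays of the same protein sequence at different concentrations or buffers and across linkers.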

[2] = target: Gal3S(b1-4)Glc6S
Procedure, shortened: as §1

[3] = target: Gal3S(b1-4)GlcNAc
Procedure, shortened: as §1

[4] = target: Gal3S(b1-4)[Fuc(a1-3)]Glc6S
Procedure, shortened: as §1

[5] = target: Gal3S(b1-4)[Fuc(a1-3)]GlcNAc
Procedure, shortened: as §1

[6] = target: Gal3S(b1-4)[Fuc(a1-3)]GlcNAc6S
Procedure, shortened: as §1

[7] = target: Gal3S4S(b1-4)GlcNAc
Procedure, shortened: as §1

[8] = target: Gal3S6S(b1-4)GlcNAc
Procedure, shortened: as §1

[9] = target: Gal3S6S(b1-4)GlcNAc6S
Procedure, shortened: as §1

[10] = target: Gal4S(b1-4)GlcNAc
Procedure, shortened: as §1

[11] = target: Gal4S6S(b1-4)GlcNAc
Procedure, shortened: as §1

[12] = target: Gal6P(b1-4)GlcNAc
Procedure, shortened: as §1

[13] = target: Gal6S(b1-3)GlcNAc
Procedure, shortened: as §1

[14] = target: Gal6S(b1-3)GlcNAc6S
Procedure, shortened: as §1

[15] = target: Gal6S(b1-4)Glc
Procedure, shortened: as §1

[16] = target: Gal6S(b1-4)Glc6S
Procedure, shortened: as §1

[17] = target: Gal6S(b1-4)GlcNAc
Procedure, shortened: as §1

[18] = target: Gal6S(b1-4)GlcNAc6S
Procedure, shortened: as §1

[19] = target: GalNAc(a1-3)Gal
Procedure, shortened: as §1

[20] = target: GalNAc(a1-3)GalNAc
Procedure, shortened: as §1

[21] = target: GalNAc(a1-3)GalNAc(b1-3)Gal(a1-4)Gal(b1-4)Glc
Procedure, shortened: as §1

[22] = target: GalNAc(a1-3)GalNAc(b1-3)Gal(a1-4)Gal(b1-4)GlcNAc
Procedure, shortened: as §1

[23] = target: GalNAc(b1-3)Gal
Procedure, shortened: as §1

[24] = target: GalNAc(b1-3)Gal(a1-4)Gal(b1-4)GlcNAc
Procedure, shortened: as §1

[25] = target: GalNAc(b1-3)Gal(a1-4)Gal(b1-4)GlcNAc(b1-3)Gal(b1-4)Glc
Procedure, shortened: as §1

[26] = target: GalNAc(b1-3)Gal(a1-6)Gal(b1-4)Glc
Procedure, shortened: as §1

[27] = target: GalNAc(b1-3)GalNAc
Procedure, shortened: as §1

[28] = target: GalNAc(b1-3)GlcNAc
Procedure, shortened: as §1

[29] = target: GalNAc(b1-4)Gal(b1-4)Glc
Procedure, shortened: as §1

[30] = target: GalNAc(b1-4)GlcNAc
Procedure, shortened: as §1

[31] = target: GalNAc(b1-4)GlcNAc(b1-2)Man
Procedure, shortened: as §1

[32] = target: GalNAc(b1-4)GlcNAc(b1-2)Man(a1-3)[GalNAc(b1-4)GlcNAc(b1-2)Man(a1-6)]Man(b1-4)GlcNAc(b1-4)GlcNAc
Procedure, shortened: as §1

[33] = target: GalNAc(b1-4)GlcNAc(b1-3)GalNAc(b1-4)GlcNAc
Procedure, shortened: as §1

[34] = target: GalNAc(b1-4)GlcNAc6S
Procedure, shortened: as §1

[35] = target: GalNAc(b1-6)GalNAc
Procedure, shortened: as §1

[36] = target: GalNAc3S(b1-4)GlcNAc
Procedure, shortened: as §1

[37] = target: GalNAc3S(b1-4)GlcNAc3S
Procedure, shortened: as §1

[38] = target: GalNAc3S(b1-4)[Fuc(a1-3)]GlcNAc
Procedure, shortened: as §1

[39] = target: GalNAc4S6S(b1-4)GlcNAc
Procedure, shortened: as §1

[40] = target: GalNAc6S(b1-4)GlcNAc
Procedure, shortened: as §1

[41] = target: Glc(a1-4)Glc
Procedure, shortened: as §1

[42] = target: Glc(a1-4)Glc(a1-4)Glc(a1-4)Glc
Procedure, shortened: as §1

[43] = target: Glc(a1-6)Glc(a1-6)Glc
Procedure, shortened: as §1

[44] = target: Glc(a1-6)Glc(a1-6)Glc(a1-6)Glc
Procedure, shortened: as §1

[45] = target: Glc(b1-4)Glc
Procedure, shortened: as §1

B1: Gs78B-bfa-542-29-542 (Bacteroides fragilis) (protein)
chain: SEDINRNPLLPTKEDEKMDGVIYGAYLPNLEKSVIPIGTASESTEPVNRYQIGVNLAGDAWAGYMSPRDNKFNGSKNFTNYFMYENWVNYVYSFMVTDVYSPWMQIKRISQDEGTRNDEIYALAQIIKIAALHRTTDMFGPIPYSQVGKGSFKVAYDSQESVYRSFLKELEEAVQTLDDYSNKSKEVLPAFDIVYNGDVNKWMRFANSLMLRLAIRVRFADAGLAKEYAEKAVKHPAGLINSKELAAQMGKGAGLQMKNPLKVINEEYNDTRMGATIYSYLAGYNDARAAVYFVKNNGFKAVRCGIAKSGDAYNGFTRPNVHEDDPLYWMKASEVCFLKAEGALAGFDMGGSAGDFYNAGIRMSFSENGLDNSSAETYLKDSTRKPANYTDTSNGELSANAPSSITIRWENGATEEEKLERIITQKYLAIFPNGQEAWTEWRRTGYPRQIVVAENKTNSAVLIGNGYDLGGVRRLPYPRTEYEQNGENLHNAISQYLGGVDNAATKVWWDKKSK
glycan array binding signal (z-score) [1]: -0.33
glycan array binding signal (z-score) [2]: -0.778
glycan array binding signal (z-score) [3]: -0.715
glycan array binding signal (z-score) [4]: 0.757
glycan array binding signal (z-score) [5]: -0.801
glycan array binding signal (z-score) [6]: -0.473
glycan array binding signal (z-score) [7]: -0.708
glycan array binding signal (z-score) [8]: -0.768
glycan array binding signal (z-score) [9]: -0.34
glycan array binding signal (z-score) [10]: -0.815
glycan array binding signal (z-score) [11]: -0.811
glycan array binding signal (z-score) [12]: -0.588
glycan array binding signal (z-score) [13]: -0.563
glycan array binding signal (z-score) [14]: -0.469
glycan array binding signal (z-score) [15]: 0.825
glycan array binding signal (z-score) [16]: 0.798
glycan array binding signal (z-score) [17]: -0.419
glycan array binding signal (z-score) [18]: -0.819
glycan array binding signal (z-score) [19]: 0.12
glycan array binding signal (z-score) [20]: -0.59
glycan array binding signal (z-score) [21]: 0.06
glycan array binding signal (z-score) [22]: 1
glycan array binding signal (z-score) [23]: -0.448
glycan array binding signal (z-score) [24]: 0.47
glycan array binding signal (z-score) [25]: 1.12
glycan array binding signal (z-score) [26]: -0.669
glycan array binding signal (z-score) [27]: -0.725
glycan array binding signal (z-score) [28]: 1.69
glycan array binding signal (z-score) [29]: 1.04
glycan array binding signal (z-score) [30]: 0.601
glycan array binding signal (z-score) [31]: 0.473
glycan array binding signal (z-score) [32]: 2.17
glycan array binding signal (z-score) [33]: 0.468
glycan array binding signal (z-score) [34]: 0.909
glycan array binding signal (z-score) [35]: -0.828
glycan array binding signal (z-score) [36]: -0.564
glycan array binding signal (z-score) [37]: -0.813
glycan array binding signal (z-score) [38]: 1.23
glycan array binding signal (z-score) [39]: -0.82
glycan array binding signal (z-score) [40]: -0.336
glycan array binding signal (z-score) [41]: -0.408
glycan array binding signal (z-score) [42]: -0.815
glycan array binding signal (z-score) [43]: -0.843
glycan array binding signal (z-score) [44]: -0.625
glycan array binding signal (z-score) [45]: -0.847
